Laboratory results: patent publication US9587005B2 (priority 2010, dated 2017)
Not every detail of the peptide structures is certain; ends, links or a residue may be inferred. *1 amine or outer side, *2 acyl side, *3 side chain or, on linkers, in order; H or OH if unused. Where no end group is shown, it is not given here. Side-chain parts run from the residue outwards. [ ]: non-standard residue; d: D form. The star is where a group is joined. γGlu = O=C(O)[C@H](CCC(=O)[*:2])N[*:1]; Palmitoyl = CCCCCCCCCCCCCCCC(=O)*; Aib = CC(C)(N)C(=O)O

Sequences of proteins named here, by UniProt entry; tags and fusion partners are left off. Residues count along the entry.
UniProt P43220, 24-463: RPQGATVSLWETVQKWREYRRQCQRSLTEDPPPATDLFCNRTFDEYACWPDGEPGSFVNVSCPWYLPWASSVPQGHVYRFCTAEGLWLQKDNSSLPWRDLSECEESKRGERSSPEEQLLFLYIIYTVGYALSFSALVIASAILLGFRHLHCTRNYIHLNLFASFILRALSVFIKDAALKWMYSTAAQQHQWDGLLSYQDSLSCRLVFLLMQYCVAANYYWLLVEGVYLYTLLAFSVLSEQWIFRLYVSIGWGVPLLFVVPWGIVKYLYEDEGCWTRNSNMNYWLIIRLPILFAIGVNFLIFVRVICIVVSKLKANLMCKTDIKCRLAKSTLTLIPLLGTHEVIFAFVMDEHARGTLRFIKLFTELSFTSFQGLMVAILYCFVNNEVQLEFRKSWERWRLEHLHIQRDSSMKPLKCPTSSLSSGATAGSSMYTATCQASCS
UniProt P47871, 26-477: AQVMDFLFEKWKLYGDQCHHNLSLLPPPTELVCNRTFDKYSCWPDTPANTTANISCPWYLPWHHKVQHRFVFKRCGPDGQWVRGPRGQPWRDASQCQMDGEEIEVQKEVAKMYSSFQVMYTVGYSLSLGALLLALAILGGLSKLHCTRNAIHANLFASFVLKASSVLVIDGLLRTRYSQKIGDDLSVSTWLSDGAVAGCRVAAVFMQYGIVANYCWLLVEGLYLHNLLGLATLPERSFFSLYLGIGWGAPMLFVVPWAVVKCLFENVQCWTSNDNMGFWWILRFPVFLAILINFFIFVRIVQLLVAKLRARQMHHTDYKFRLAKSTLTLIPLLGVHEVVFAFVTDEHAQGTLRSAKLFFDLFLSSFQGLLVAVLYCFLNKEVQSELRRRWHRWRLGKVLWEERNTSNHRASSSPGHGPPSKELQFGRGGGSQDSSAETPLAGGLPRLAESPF

Columns and labels:
Type in all cases: cell-based
[1] = target: T1, GLP-1 receptor (Homo sapiens, UniProt P43220); experiment: cAMP induction, firefly luciferase reporter assay in HEK293 cells co-transfected with GLP-1 receptor; details: read-out: GLP-1 Receptor EC50; Table 11, Example 18
T1 construct: expressed in transfected cells; host or cells: HEK293
Text: (§1) This example describes an exemplary method of testing the biological activity of the peptides of the present disclosures, which method involves assaying cAMP synthesis.

[2] = target: T2, glucagon receptor (Homo sapiens, UniProt P47871); experiment: cAMP induction, firefly luciferase reporter assay in HEK293 cells co-transfected with glucagon receptor; details: read-out: Glucagon Receptor EC50; Table 11, Example 18
T2 construct: expressed in transfected cells; host or cells: HEK293
Text: as §1

[3] = target: T3, GIP receptor (Homo sapiens, UniProt P48546); experiment: cAMP induction, firefly luciferase reporter assay in HEK293 cells co-transfected with GIP receptor; details: Table 11, Example 18
T3 sequence (P48546 22-466): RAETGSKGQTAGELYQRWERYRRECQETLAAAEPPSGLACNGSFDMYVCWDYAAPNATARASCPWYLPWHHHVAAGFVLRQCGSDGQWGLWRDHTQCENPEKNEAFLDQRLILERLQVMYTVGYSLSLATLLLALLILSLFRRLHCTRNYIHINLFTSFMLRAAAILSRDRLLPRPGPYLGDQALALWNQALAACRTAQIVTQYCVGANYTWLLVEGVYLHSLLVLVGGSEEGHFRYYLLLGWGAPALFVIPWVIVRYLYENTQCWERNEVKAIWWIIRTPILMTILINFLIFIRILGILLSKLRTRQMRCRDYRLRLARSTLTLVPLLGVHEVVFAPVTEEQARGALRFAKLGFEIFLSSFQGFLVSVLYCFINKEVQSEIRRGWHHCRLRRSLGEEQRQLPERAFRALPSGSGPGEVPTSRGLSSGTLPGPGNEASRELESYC

“H[Aib]QGTFTSDYSKYLDERAAQDFVQWLLDGGPSSGSPPPSK([γGlu-Palmitoyl])G-NH2 [SEQ ID NO: 155]” gave an EC50 [1] of 3 pM, an EC50 [2] of 4 pM and an EC50 [3] of 8 pM.
